Laboratory results: patent US10076520B2, “Use of tyrosine kinase inhibitor in cancer treatment” (THE REGENTS OF THE UNIVERSITY OF COLORADO, A BODY CORPORATE, priority 2013, dated 2018)
For at least one compound, name, drawing or mass did not settle the structure. Some entries repeat one wording, which the source may state once for all of them.

How the values were obtained:
Parotid gland tissue = assay: Active caspase-3 staining of parotid gland tissue of irradiated mice; format: in vivo; details: 20 mg/kg oral gavage 1 hr prior and 3 hr post 25 Gy, sacrificed 24 hrs later, p<0.01
salivary gland = assay: Salivary flow rate after head and neck irradiation of mice; format: in vivo; details: up to 90 days
ParC5 cells = assay: Irradiation-induced apoptosis (caspase-3 activity) in ParC5 cells; format: cell-based, rat; details: parC5 cells pre-treated 30 mins prior to 10 Gy irradiation; harvested after 18 hrs; p<0.05
Protocol: Cells were harvested after an additional 18 hrs and casapase 3 activity were measured.

Cc1nc(Nc2ncc(C(=O)Nc3c(C)cccc3Cl)s2)cc(N2CCN(CCO)CC2)n1 [dasatinib]
apoptosis in the irradiated salivary gland (cells with active caspase-3) (Parotid gland tissue): suppression of apoptosis | salivary gland function (saliva flow rate) (salivary gland; 10 Gy to head and neck, oral gavage 1 hour before and 3 hours after irradiation, dasatinib 20 mg/kg, imatinib 50 mg/kg): preserved salivary gland function following radiation

COc1cc(Nc2c(C#N)cnc3cc(OCCCN4CCN(C)CC4)c(OC)cc23)c(Cl)cc1Cl [bosutinib]
salivary gland function (saliva flow rate) (salivary gland; 15 Gy to head and neck, 100 mg/kg oral gavage 1 hour before and 3 hours after irradiation): preserved salivary gland function following radiation

CN1CCN(CCOc2cc(OC3CCOCC3)c3c(Nc4c(Cl)ccc5c4OCO5)ncnc3c2)CC1 [saracatinib]
apoptosis (caspase 3 activity) (ParC5 cells): significant protection from apoptosis
